No constants are given. Whether binding was seen depends on the method and setting. Where a sequence is shown, tags or fusion partners need not be part of it.
B1: CAPRICE (CPC), yeast two-hybrid fusion (protein, UniProt O22059 1-94)
chain: MFRSDKAEKMDKRRRRQSKAKASCSEEVSSIEWEAVKMSEEEEDLISRMYKLVGDRWELIAGRIPGRTPEEIERYWLMKHGVVFANRRRDFFRK

Assays:
Experiment in all cases: two-hybrid; yeast strain AH109; QKY domains on the GAL4 DNA-binding domain (pAS2-1), SCM domains on the GAL4 activation domain (pACT2); growth on -A-H-L-T selective plates for 3 days
[1] = target: T1, CAPRICE (CPC), yeast two-hybrid fusion (Arabidopsis) (UniProt O22059)
T1 sequence: B1 chain

[2] = target: QKY second domain (QKYD2) fused to the GAL4 DNA-binding domain (Arabidopsis)
[3] = target: QKY third domain (QKYD3) fused to the GAL4 DNA-binding domain (Arabidopsis)

| Molecule | binding [1] | binding [2] | binding [3] |
| --- | --- | --- | --- |
| SCM cytosolic domain (SCMCD) fused to the GAL4 activation domain (Arabidopsis) (domain or fragment) | no binding | – | – |
| B1 | – | no binding | no binding |
